Hit rate of the full screen: of about 52,000 sequences, about 210 (0.4%) were called active.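 The calls were made as follows: active = gene whose silencing raises cell survival under the drug, median off-target-corrected z-score across its silencing RNAs 2 or more; inactive = the rest.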 This is one part of the list.

This experiment in a line: Resistance to Poly (ADP-Ribose) Polymerase inhibitor: Gene Identification via Genome-wide siRNA Screen. Particulars: mouse BRCA2 R2336H ES cells, olaparib, CellTiter-Glo viability; stronger effect = higher value. In a few lines:
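Genome-wide siRNA screen (3 siRNAs/gene, 20 nM) in mouse ES cells carrying hypomorphic BRCA2 R2336H; olaparib 500 nM added 48 h post-transfection, CellTiter-Glo viability 72 h later. Normalized to plate-median negative control; MAD z-scores, gene median, seed-adjusted.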
For the sequence GGUAGAACCCAUGACAGCUTT against Ube1l, the z-score is inactive: 1.94.

For the sequence GGAUGCCUUCUAUACACUATT against Hras1, the z-score is inactive: 0.202. For GCACUGAGUACUGCCUCAUTT against Otop3 the value was inactive: -0.322; for GGUUAUUUUGGGAAUAUUCTT against Ndufab1, inactive: 1.07.

Turning to “GGGUACAGGACUCAAGAGUTT against 9130230L23Rik”, the z-score is inactive: -0.628. For GGUUAAAGGUGCAUUUAAATT against Olfr1448 the value was inactive: -0.453; for GGGAUUGAUUUGACUCACATT against Kars, inactive: -2.09. In the case of GGCCUUCCUUUGUUUUUUUTT against Jup, the z-score is inactive: 0.565. For GGUGUUUUCUGUGCUGUGATT against Klhdc3 the value was inactive: -1.14; for GGCUCAGUGAAGGCAAGUUTT against Hspb2, inactive: -0.481; for GGGCUGUAUUUCUUUACCCTT against Mrgprb2, inactive: 0.494.

Turning to GGGAUCUUGGAGAACCAAATT against Slc39a5, the z-score is inactive: -1.75.

Turning to GGAUUGUGCUGUGAAACAUTT against Pilrb, the z-score was inactive: -1.98. Then CCAAACACUAUGGCCUGAUTT against Nsddr, with inactive: -2.82; and GCUUCUAGAGACAAAAAAUTT against Mapk8ip3, with inactive: 1.07.

As for GCACCAUAUCCUCUGCAUUTT against Slc5a6, the z-score was inactive: -0.89. With “GCAUACUUAGGAUACACGCTT against A830005F24Rik”, the z-score is inactive: -0.766. As for “GGCGUGUCUGUAAAAUCUUTT against 3110037I16Rik”, the z-score is inactive: -0.611.

On to GGUGAUUUGUGAAAGGGUGTT against Rnf38, for which the z-score is inactive: -0.548. For GCAAUGUCGCCAAACGUAATT against Zfpn1a1 the value was inactive: -0.213; for GGGAACUCAGCUUCACCAATT against Trim47, inactive: -1.84; for GGGACCAUACACUCCAUAUTT against Olfr1507, inactive: 0.0912. Take CGGUCAUUAAAACUUACAGTT against Hells: the z-score was inactive: 0.472.

Take “GGUUGCUAGUUUCUGAAAATT against C130074G19Rik”: the z-score was inactive: 0.177.

On to “GGACAACUCUCAUGUAAUATT against A630047E20Rik”, for which the z-score was inactive: -1.48. Then GAUUGUGGACUUAAGGAUUTT against V1rg6, with inactive: -0.36; and “GCUUUAUUGAUUCCACUAGTT against C630007C17Rik”, with inactive: 0.359; and GGCCAAUGUCUUCUUCAAGTT against Arpc3, with inactive: -1.12. Then GGAGCUACCAAGUUACUUCTT against Emr4, with inactive: 0.742; and GGAGGGUGAUCUCAUUGAATT against Prkcm, with inactive: -2.15. For CCGGGACAUAGAGGAAAUUTT against Cabp1 the value was inactive: -2.2; for GGCAACUAAGGCUAAGAAGTT against Hist1h1e, inactive: 0.15; for GGCUAUACCUUGGUAGAUATT against Parvg, inactive: -0.205.

On to CCUGGACCAAAAUUUUGUGTT against Cyp2j5, for which the z-score was inactive: 1.43.

GGUAUUGGUGCAAUUGUCCTT against Olfr891: the z-score was inactive: 0.712. For GGUAAUUGCUGGCUUUAAUTT against Pfdn2 the value was inactive: -1.75; for GGCUGGAAGCGUAAUUCACTT against Trim36, inactive: 0.48. For GGACAUUAUCACUUUGGAATT against Casp2 the value was inactive: 0.491; for GGAGAACCCAUUCAAGUCCTT against Suhw2, inactive: 1.19. Then GGACUUGAAUGAUAAGUUCTT against Cyp1a1, with inactive: 0.408; and GGAUGAAGUGGAAGAUUACTT against Birc1b, with inactive: 0.299.

Regarding GGAGCUGGUGGAUCUGAAGTT against D7Wsu128e, the z-score is inactive: -0.44. For GUGCAUGCAGUGUUGUUUUTT against Magea5 the value was inactive: 0.299; for GGUUACGGAUAUGGAUCUGTT against Krtap8-2, inactive: -0.67. Then GGGCACAGGCACUAAAAUGTT against Sbk, with inactive: -0.689; and GCCUAGCAGUGCCAGGAAATT against Epn2, with inactive: -0.533. Regarding GCCACUCAAAGUUCGAAGGTT against BC003277, the z-score is inactive: -0.0471. As to “GGUCCAGAUUCGAACACCATT against 5430437P03Rik”, the z-score is inactive: 2.95. For CCAGGAAGUGUUGAUGUGCTT against Gal the value was inactive: -0.782. Then GCUCUAUGGAGACCUAAAGTT against Sdha, with inactive: -1.88; and “GGUAAUAAAGCUCUUACAGTT against 1600031M04Rik”, with inactive: 0.289. Then “GCAAACCAUGCCUAAUGGATT against 4632415K11Rik”, with inactive: -0.567; and CGACAACACAGUUAUUAUUTT against Pld1, with inactive: 0.299; and “GGAAUAUCACCAAACCAAATT against 2310057J18Rik”, with inactive: -0.058.

Take GGAAGAGGUGCUACCUCUATT against Crlz1: the z-score is inactive: 0.248.

CCAAGUACAAAUGGUGUGATT against Vdac2: the z-score is inactive: 0.262. As to GUUCUUAUAUAGGAUUGUGTT against Gm1620, the z-score is inactive: 0.479. For GGAUCAAUGGUGUCUUUGUTT against Pdzk1 the value was inactive: -1.84; for GGCAGAUGUGUUUGCUUUUTT against Pbk, inactive: 0.896; for “GCUGUAAAAUUGUUCCUAATT against 1700081D17Rik”, inactive: -0.113. Then “GGGAGAGAUACGGAAAGAGTT against 4932417I16Rik”, with inactive: -1.8; and CCAUCGACUGUUUCAUCCUTT against Olfr987, with inactive: 0.248; and GGAACUUCAGAGUAAACCUTT against H2-T23, with inactive: 0.428.

Regarding GGUGAGCCUGAGAUUUAAATT against Mcpt6, the z-score is inactive: -0.905. Then “GGACUUUCUGAUGGACUUGTT against Ng23-pending”, with inactive: -0.0306; and GCUGGAGAUCUAAAAACAGTT against Mphosph10, with inactive: -0.233; and GCAGCACAGUACUAUCUCGTT against Ttc4, with inactive: -1.67. Then CCAAGAUUCAUAAGAAGGCTT against Tas2r131, with inactive: 0.58. With “GGAUAUCGAGGAUGUACUGTT against 1110008L20Rik”, the z-score is inactive: -1.08.

As to “GCAGUGUGUCCUAAAGCUCTT against G430090F17Rik”, the z-score is inactive: 0.366. Turning to GGACCUGGAUGUGUCCUAUTT against Lrfn4, the z-score was inactive: 0.0646. For the sequence GGAACCAGAAGAAUCAUUGTT against Casp4, the z-score is inactive: 0.0565.

Take CCAAUUUUACCUGACUUCGTT against Cova1: the z-score is inactive: -0.0851. Then GUUCAGACAGAAACCCAGUTT against Fxyd3, with inactive: -0.0885; and GCAUCAAUUGUCAGGAAAUTT against Rev3l, with inactive: -0.211. For GCCGAGAAUGAAGUUAGAATT against Mybl1 the value was inactive: 0.133. For GCUUAUUCCCAGGAGACCATT against Dmrtc2 the value was inactive: 1.18; for CCAGCCAUCUGCCAGUAUATT against LOC381438, inactive: -0.552; for GUGUCUCUGGCUGUUCUGATT against Atp5o, inactive: -1.02. Turning to GCAUGGAUCCCUUUUCGAUTT against Tgfbr1, the z-score is inactive: 0.0538. Then CCAGUUACUAGUAAUACUCTT against Mcm3ap, with inactive: -0.797; and “GCAUGUAUAACAGACCCAUTT against 4921511H03Rik”, with inactive: 1.1. For GCCACCAAUGUGCUUACAUTT against Cfhrb_4/2 the value was inactive: -1.11. For GGGAAACUGACCAUCAAAATT against Cbara1 the value was inactive: 0.878.

For the sequence GGUUCUGUCCGCUUUUUGGTT against Coasy, the z-score was inactive: 1.65. Take GGAGUGAGACAAGUGUAUGTT against Sprr1a: the z-score is inactive: 1.01.

AGUGUAAGAGCCUGUUUAUTT against Xlr: the z-score was inactive: 0.891. For CCUGGGUUCUUUACCAUAATT against Mak10 the value was inactive: 0.635; for GCUUACCAUGAAAAUAUUGTT against Kcnip1, inactive: -0.579. Then “GGUUCUGGUAUAAGUUAACTT against B230362M20Rik”, with inactive: -0.366; and GCUAGGAGCUAGGAAUCCGTT against Pdzk2, with inactive: 0.624; and “GCGCAUCCGUGUGAAAUUCTT against 1700034H14Rik”, with inactive: 0.117.

On to GGGUUUGACUACAAGACUUTT against Mat2a, for which the z-score was inactive: 2.15.

For the sequence GCCAAGGAGAUCACACUUATT against Chrnd, the z-score is inactive: -0.735. For “GGGUGUCAACCCUUUAGAUTT against 4930565N07Rik” the value was inactive: 0.532; for CCUUGAGAAGUUAAACCAUTT against Specc1, inactive: -0.483; for “GGCACUUCUUUCCAAGACGTT against 9830147J24Rik”, inactive: 2.16. Then “CCUCAAAAUGGCUAUGGACTT against 1520401A03Rik”, with inactive: 1.26; and CCUGAAAAGCUAUUGGGUATT against Baat, with inactive: -0.796.

Regarding GGAGAAGACUAUAAGCUUATT against Tmem5, the z-score is inactive: 0.952. As to GGCUCAAGGUCUUUUCAACTT against Olfr702, the z-score was inactive: 0.976.

For GGAAGUGCUGAAGGUGUACTT against Spire2, the z-score is inactive: 0.683. Then GGUGAAUUUACUCCUGAAATT against Asxl2, with inactive: -1.06; and GGAAUUGACUGUGUUAAGATT against Zfr, with inactive: 0.749.

Source of the values: PubChem BioAssay AID1347423 (Functional Genomics Laboratory (NCATS/FGL), 2020).
